Assay results from PMC12547303.
No constants are given. Whether binding was seen depends on the method and setting. In cells and extracts the contact can be indirect. Some binding calls cover weakened binding; strength is not graded here. Tags and fused reporters may be left off the sequences shown.

T1: GST fusion of the CNNM2 CNBH domain (582–875) (mouse) (UniProt Q3TWN3)
T1 sequence: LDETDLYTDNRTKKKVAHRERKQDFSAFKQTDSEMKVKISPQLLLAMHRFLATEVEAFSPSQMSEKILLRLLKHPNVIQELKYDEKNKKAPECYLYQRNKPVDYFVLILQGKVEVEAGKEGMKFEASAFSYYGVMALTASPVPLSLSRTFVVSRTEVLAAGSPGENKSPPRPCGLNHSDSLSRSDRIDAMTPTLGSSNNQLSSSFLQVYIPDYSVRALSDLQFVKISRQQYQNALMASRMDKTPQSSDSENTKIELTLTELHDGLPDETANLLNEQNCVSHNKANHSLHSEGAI


Assays:
[1] = biological target: GST fusion of the CNNM2 CBS domain (495–582) (mouse) (UniProt Q3TWN3); test: pull-down; GST fusion proteins bound to glutathione agarose beads incubated with cleared lysates of HEK-293T cells expressing TRPM7 fragments (overnight at 4 °C by the methods, 4 h by the legend); washed with PBS 0.1% Triton X-100; Western blot; 1 mM Mg·ATP in the lysate in some samples with …; only the target purified
[2] = biological target: T1, GST fusion of the CNNM2 CNBH domain (582–875) (mouse); test: as above

binding [1] | binding [2] | Binder
binds | binds | TRPM7 COOH-terminal fragment fused to mfGFP, M7-CTERM (1120–1862) (domain or fragment, UniProt Q923J1 1120-1862) MAYHEKPVLPPPLIILSHIVSLFCCVCKRRKKDKTSDGPKLFLTEEDQKKLHDFEEQCVEMYFDEKDDKFNSGSEERIRVTFERVEQMSIQIKEVGDRVNYIKRSLQSLDSQIGHLQDLSALTVDTLKTLTAQKASEASKVHNEITRELSISKHLAQNLIDDVPVRPLWKKPSAVNTLSSSLPQGDRESNNPFLCNIFMKDEKDPQYNLFGQDLPVIPQRKEFNIPEAGSSCGALFPSAVSPPELRQRRHGVEMLKIFNKNQKLGSSPNSSPHMSSPPTKFSVSTPSQPSCKSHLESTTKDQEPIFYKAAEGDNIEFGAFVGHRDSMDLQRFKETSNKIRELLSNDTPENTLKHVGAAGYSECCKTSTSLHSVQAESCSRRASTEDSPEVDSKAALLPDWLRDRPSNREMPSEGGTLNGLASPFKPVLDTNYYYSAVERNNLMRLSQSIPFVPVPPRGEPVTVYRLEESSPSILNNSMSSWSQLGLCAKIEFLSKEEMGGGLRRAVKVLCTWSEHDILKSGHLYIIKSFLPEVINTWSSIYKEDTVLHLCLREIQQQRAAQKLTFAFNQMKPKSIPYSPRFLEVFLLYCHSAGQWFAVEECMTGEFRKYNNNNGDEIIPTNTLEEIMLAFSHWTYEYTRGELLVLDLQGVGENLTDPSVIKAEEKRSCDMVFGPANLGEDAIKNFRAKHHCNSCCRKLKLPDLKRNDYTPDKIIFPQDESSDLNLQSGNSTKESEATNSVRLM
binds | binds | kinase-inactive (K1646R) TRPM7 COOH-terminal fragment fused to mfGFP, M7-CTERM-KI (1120–1862) (domain or fragment, UniProt Q923J1 1120-1862) MAYHEKPVLPPPLIILSHIVSLFCCVCKRRKKDKTSDGPKLFLTEEDQKKLHDFEEQCVEMYFDEKDDKFNSGSEERIRVTFERVEQMSIQIKEVGDRVNYIKRSLQSLDSQIGHLQDLSALTVDTLKTLTAQKASEASKVHNEITRELSISKHLAQNLIDDVPVRPLWKKPSAVNTLSSSLPQGDRESNNPFLCNIFMKDEKDPQYNLFGQDLPVIPQRKEFNIPEAGSSCGALFPSAVSPPELRQRRHGVEMLKIFNKNQKLGSSPNSSPHMSSPPTKFSVSTPSQPSCKSHLESTTKDQEPIFYKAAEGDNIEFGAFVGHRDSMDLQRFKETSNKIRELLSNDTPENTLKHVGAAGYSECCKTSTSLHSVQAESCSRRASTEDSPEVDSKAALLPDWLRDRPSNREMPSEGGTLNGLASPFKPVLDTNYYYSAVERNNLMRLSQSIPFVPVPPRGEPVTVYRLEESSPSILNNSMSSWSQLGLCAKIEFLSKEEMGGGLRRAVKVLCTWSEHDILKSGHLYIIRSFLPEVINTWSSIYKEDTVLHLCLREIQQQRAAQKLTFAFNQMKPKSIPYSPRFLEVFLLYCHSAGQWFAVEECMTGEFRKYNNNNGDEIIPTNTLEEIMLAFSHWTYEYTRGELLVLDLQGVGENLTDPSVIKAEEKRSCDMVFGPANLGEDAIKNFRAKHHCNSCCRKLKLPDLKRNDYTPDKIIFPQDESSDLNLQSGNSTKESEATNSVRLM
binds | binds | TRPM7 ST rich region with catalytic kinase domain fused to mfGFP, M7-ST-KIN (1288–1862) (domain or fragment, UniProt Q923J1 1288-1862) WKKPSAVNTLSSSLPQGDRESNNPFLCNIFMKDEKDPQYNLFGQDLPVIPQRKEFNIPEAGSSCGALFPSAVSPPELRQRRHGVEMLKIFNKNQKLGSSPNSSPHMSSPPTKFSVSTPSQPSCKSHLESTTKDQEPIFYKAAEGDNIEFGAFVGHRDSMDLQRFKETSNKIRELLSNDTPENTLKHVGAAGYSECCKTSTSLHSVQAESCSRRASTEDSPEVDSKAALLPDWLRDRPSNREMPSEGGTLNGLASPFKPVLDTNYYYSAVERNNLMRLSQSIPFVPVPPRGEPVTVYRLEESSPSILNNSMSSWSQLGLCAKIEFLSKEEMGGGLRRAVKVLCTWSEHDILKSGHLYIIKSFLPEVINTWSSIYKEDTVLHLCLREIQQQRAAQKLTFAFNQMKPKSIPYSPRFLEVFLLYCHSAGQWFAVEECMTGEFRKYNNNNGDEIIPTNTLEEIMLAFSHWTYEYTRGELLVLDLQGVGENLTDPSVIKAEEKRSCDMVFGPANLGEDAIKNFRAKHHCNSCCRKLKLPDLKRNDYTPDKIIFPQDESSDLNLQSGNSTKESEATNSVRLM
